Test results: the supplement of paper PMC10338343
± gives the standard deviation. This is a selection; strong and weak results do not stand in their true shares. Many entries were measured with a wide error.

system: MILI (PIWIL2) piRISC loaded with piRNA #2 (26 nt); assay: pre-steady-state target cleavage rate (min^-1); MIWI and MILI are mouse PIWI proteins and EfPiwi is from a freshwater sponge; tags in brackets are library labels; higher = faster piRNA-guided slicing of the target; settings: guide: piRNA #2 5'p-UUAGGUAACCCAGUAGAUCCAGAGGA; auxiliary factor: 500 nM mouse GTSF1
Procedure, shortened: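 In Cleave-'n-Seq, a transcribed, DNA-blocked target RNA library (0.1 nM) was combined with 1 nM active affinity-purified piRISC bearing one synthetic guide, with or without 500 nM GTSF1 partner protein. Reactions ran in HEPES–potassium acetate buffer at 33 °C for 0–8 or 0–960 min. Uncleaved targets were sequenced and normalised to depth and to weakly complementary targets, three trials were pooled, and k3 was capped at 0.0001 min^-1. The pre-steady-state cleavage rate was obtained by fitting a burst-and-steady-state model.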

Sequence | pre-steady-state target cleavage rate
CUUAAGGAGAGGAUCAACUGGGUAACCUAA | 0.000699 ± 0.014
CUUAAGGAGACCUUCUACACGGUUACCUAA | 0.000439 ± 0.014
CUUAAGGAGAGCUACUACUGGGUUACCUAA | 0.00088 ± 0.0053
CUUAAGGACUGGAUCUACUGGGUUACGAUA | 0.00441 ± 0.0082
CUUAUCCUCUGGAUCUACAGGCUUACCUAA | 0.00164 ± 0.005
CUUAAGGAGAGGAUCUACGUGGGUUACCUAA | 0.000125 ± 0.032
CUUAUCCUCUGGAUCUACUCGGUUACCUAA | 0.00364 ± 0.005
CUUAAGGAGAGGAUCUACUGCCUUACCUAA | 0.000681 ± 0.0095
CUUAAGGAGACCUACAACUGGGUUACCUAA | 0.000395 ± 0.012
CUUAAGGAGACGAUCUACUGGGUUCCCUAA | 0.000892 ± 0.0089
CUUAAGGACUGGAACUACUCGGUUACCUAA | 0.000776 ± 0.026
CUUAUCCUCUGGAUCUACUGCCUUACCUAA | 0.000747 ± 0.0085
CUUAUCCUCUGGAUCUACUGGGUUUCCUUA | 0.413 ± 0.15
CUUAAGGAGAGGAUCUACUGGGUUAUCUAA | 0.00254 ± 0.0053
CUUAAGGAGACGAUCUUGUGGGUUACCUAA | 0.00136 ± 0.0063
CUUAAGGAGACGAUCUACUGGGUUACCUUA | 0.0025 ± 0.0038
CUUAAGGAGACCUACUACUGGGUUACCAUA | 0.000258 ± 0.025
CUUAAGGAGUGUGAUCUACUGGGUUACCUAA | 0.00262 ± 0.0058
CUUAAGGAGACCUACUACUGGGUUACCUAA [g2:g16:cont:t1A] | 0.00059 ± 0.0088
CUUAAGGACUGGAUCUUCUGGGUUACCAAA | 0.000576 ± 0.023
CUUAAGGAGACCUAGAUCUAGGGUUACCUAA | 0.000429 ± 0.025
CUUAAGGAGACCUACUACUGGCUUACCUAA | 0.000139 ± 0.032
CUUAAGGAGACCUAGAUGUGGGUAACCAAA | 0.000505 ± 0.017
CUUAACCUCUCGGAUCUACUGGGUUACCUAA | 0.0634 ± 0.017

Sequence | pre-steady-state target cleavage rate
CUUAAGGAGUCGAUGUACUGGGUUACCUAA | 0.00103 ± 0.018
CUUAAGCUCAGGAUCUACUGGGUAACCUAA | 0.0259 ± 0.0088
CUUAAGGAGACCAUCUACUGGCGUUACCUAA | 0.000239 ± 0.017
CUUAAGGAGACCUACUACUGGGAUACCUUA | 0.000416 ± 0.022
CUUAAGGAGAGUGAUCUACUGGGUUACCUAA | 0.00269 ± 0.004
CUUAAGCUCUGGAUCUACUGGCUUACCUAA | 0.00151 ± 0.0066
CUUAAGGAGAGGAUCUACAGGGUUACCAAA | 0.00176 ± 0.0077
CUUAAGGAGACGAUCUACUGGGUUAUCCUAA | 0.00198 ± 0.0059
CUUAAGGAGUGGUUCAACUGGGUUACCUAA | 0.00146 ± 0.0088
CUUAAGGACUGGAUCUACUGCGUUACCUUA | 0.00289 ± 0.013
CUUAAGGAGACCUAGAUCAUGGGUUACCUAA | 0.000369 ± 0.021
CUUAACCUCUGGAUCUACUGGGUUACCUAA [g2:g25:cont:t1A] | 0.101 ± 0.02
CUUAAGGAGACCUUCUACUGGCUUACCUUA | 0.00049 ± 0.015
CUUAAGGAGACCAUCGACUGGGUUACCUAA | 0.000493 ± 0.019
CUUAAGGAGACGAUCUACUCGGUAACCUAA | 0.000112 ± 0.037
CUUAAGGACUGGAUCUACUGGGUUACUAA | 0.00578 ± 0.0074
CUUAACCUCUGGAUCUACUGCGUUACGUAA | 0.00362 ± 0.0041
CUUAAGCUCUGGAUCAACUGGGUUUCCUAA | 0.0481 ± 0.015
CUUAAGGAGACCUACUACUGCGUUAGCUAA | 0.000151 ± 0.035
CUUAAGGAGACCAACUACUGGGUUACCAAA | 0.00018 ± 0.04
CUUAAGGAGACCAUCUUCUGGGUUACCAAA | 0.00101 ± 0.011
CUUAAGGAGACCUUCUACUGGGUUACCUAU [g2:g17:cont:t1U] | 0.00113 ± 0.01
CUUAAGGAGUGGAUCAACUGCGUUACCUAA | 0.00149 ± 0.0097
CUUAAGGAGACGAUCUUCUGGGAUACCUAA | 0.00173 ± 0.0035

Sequence | pre-steady-state target cleavage rate
CUUAAGGAGAGGAUCUACAGCGUUACCUAA | 0.00131 ± 0.0055
CUUAAGGAGACGAUCUACUGGGAAACCUAA | 0.000663 ± 0.0076
CUUAAGGAGACCAUCUACUCGGUUACGUAA | 0.000268 ± 0.039
CUUAAGGAGACGAUCUACUGGGUUACGUAA | 0.00019 ± 0.018
CUUAACCUCUGCAUCUACUGGGUUACCAAA | 0.173 ± 0.055
CUUAAGGUCAGGAUCUACUGGGUUAGCUAA | 0.000689 ± 0.024
CUUAUCCUCUGGAUGUACUGGGUAACCUAA | 0.0198 ± 0.0082
CUUAACCACUGGAUCAACUGGGUUACCUAA | 0.0515 ± 0.014
CUUAAGGAGUGGAUCUACUGGGUUACCGUAA | 0.0155 ± 0.0079
CUUAAGGAGACCAUCUUGUGGGUUACCUAA | 0.000665 ± 0.014
CUUAAGGAGUCGAUCAACUGGGUUACCUAA | 0.000708 ± 0.016
CUUAAGGACUGGAACUACUGCGUUACCUAA | 0.00104 ± 0.018
CUUAAGGAGAGGUUCUACUGGGUUACCUUA | 0.00292 ± 0.0051
CUUAAGGAGAGGAUCUAGUGGGUUACCUUA | 0.00114 ± 0.0077
CUUAAGGAGACCUAUUACUGGGUUACCUAA | 0.000121 ± 0.023
CUUAAGGAGUGGUCUACUGGGUUACCUAA | 0.000653 ± 0.013
CUUAUCCUCUGGAUCUACUGCGGUUACCUAA | 0.00214 ± 0.0034
CUUAAGGAGACCAUCUUCUGGGUUACCUAA | 0.00164 ± 0.0064
CUUAAGGAGACCUACUACUGGCGUUACCUAA | 0.000103 ± 0.055
CUUAAGGAGACCUUCAUGUGGGUUACCUAA | 0.000445 ± 0.023
CUUAAGGAGACGAUCUACUGCGUUACCUUA | 0.000511 ± 0.011
CUUAAGGAGACCUUCUACUGGGAUACCUAA | 0.000674 ± 0.011
CUUAAGCUCUGGAUCUACUGGCGUUACCUAA | 0.000346 ± 0.013

Four entries from above, as a markdown table.

| Sequence | pre-steady-state target cleavage rate |
| --- | --- |
| CUUAAGGAGACGAUCUUGUGGGUUACCUAA | 0.00136 ± 0.0063 |
| CUUAAGGAGACCUAGAUGUGGGUAACCAAA | 0.000505 ± 0.017 |
| CUUAAGGAGACCAACUACUGGGUUACCAAA | 0.00018 ± 0.04 |
| CUUAAGCUCUGGAUCUACUGGCGUUACCUAA | 0.000346 ± 0.013 |
